Source: publication PMC11647120
No constants are given. Whether binding was seen depends on the method and setting. Binding seen in cells or lysates may run through a third protein. A yes stands for co-enrichment or nearness to the bait. Other partners may have been found.

Protein sequences, listed by entry. Tags and fused reporters are not part of them.
UniProt Q92905: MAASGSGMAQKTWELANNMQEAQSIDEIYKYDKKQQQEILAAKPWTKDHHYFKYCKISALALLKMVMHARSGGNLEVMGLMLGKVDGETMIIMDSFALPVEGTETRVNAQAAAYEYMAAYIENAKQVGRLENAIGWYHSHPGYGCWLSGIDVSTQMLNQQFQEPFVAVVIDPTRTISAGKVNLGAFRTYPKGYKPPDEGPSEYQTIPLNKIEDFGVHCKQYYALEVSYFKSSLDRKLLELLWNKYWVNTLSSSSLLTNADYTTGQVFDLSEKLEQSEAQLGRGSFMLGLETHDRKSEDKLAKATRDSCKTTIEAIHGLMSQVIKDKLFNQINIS
UniProt Q13620: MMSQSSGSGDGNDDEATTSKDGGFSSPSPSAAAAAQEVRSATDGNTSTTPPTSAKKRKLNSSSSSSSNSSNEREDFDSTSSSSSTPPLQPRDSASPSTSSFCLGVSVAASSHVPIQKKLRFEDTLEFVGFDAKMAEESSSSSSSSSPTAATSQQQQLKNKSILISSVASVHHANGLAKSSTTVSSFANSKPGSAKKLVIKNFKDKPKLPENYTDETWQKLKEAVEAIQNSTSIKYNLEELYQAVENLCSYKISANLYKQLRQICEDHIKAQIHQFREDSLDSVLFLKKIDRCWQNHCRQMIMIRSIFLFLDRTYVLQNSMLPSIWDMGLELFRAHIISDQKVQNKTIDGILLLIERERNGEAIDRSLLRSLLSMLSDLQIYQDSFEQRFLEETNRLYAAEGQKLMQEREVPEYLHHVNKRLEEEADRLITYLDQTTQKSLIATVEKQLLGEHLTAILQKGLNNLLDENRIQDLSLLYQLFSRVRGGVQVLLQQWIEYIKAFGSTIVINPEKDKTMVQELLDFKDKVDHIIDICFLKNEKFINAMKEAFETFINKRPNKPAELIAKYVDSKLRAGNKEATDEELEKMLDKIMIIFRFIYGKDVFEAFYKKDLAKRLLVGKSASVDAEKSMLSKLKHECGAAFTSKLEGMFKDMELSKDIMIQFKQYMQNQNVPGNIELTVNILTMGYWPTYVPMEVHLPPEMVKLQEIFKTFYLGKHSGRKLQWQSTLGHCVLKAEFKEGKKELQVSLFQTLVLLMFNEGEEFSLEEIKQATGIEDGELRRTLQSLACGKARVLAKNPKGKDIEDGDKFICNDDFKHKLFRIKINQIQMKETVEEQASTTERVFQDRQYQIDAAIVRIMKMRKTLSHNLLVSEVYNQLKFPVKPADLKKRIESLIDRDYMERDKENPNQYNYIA

Target: APEX2- or TurboID-conjugated CSN5 (human) (UniProt Q92905)
Assay: proximity labelling; RPMI8226 cells overexpressing APEX2-CSN5 (500 uM biotin-tyramide 30 min, then 1 mM H2O2 1 min) or TurboID-CSN5 (500 uM biotin 10 min); streptavidin magnetic beads, LC-MS/MS (DIA); proximal = enriched 2-fold or more, p < 0.01, in biotin-tyramide- or biotin-treated samples; hits of the two systems pooled

For CUL4B (from UniProt Q13620 1-913), the binding was “binds”.
